Laboratory results taken from patent US20070202508A1.
Results are given in words; binding and its absence hold for the method and conditions named. Binding seen in cells or lysates may run through a third protein. Binding calls can cover weak binding; strength is not graded here. Tags and fused reporters may be left off the sequences shown.

Biological target: primary sigma factor from T. thermophilus (σ^A) (Thermus thermophilus)
Assay: Ni-NTA agarose pull-down, SDS-PAGE with Coomassie stain

B1: histidine-tagged phage protein Ys18 (protein)
chain: MTRPWTEAEINELIELVNAGRKRREIAKILGRTPKSIESKLRDIRKKSGEGNEKVLANNKINENNNSQKNIEKTNSEKVDAIVLYRKFLRKFLQKDSLPEREFDSLANAVEEYYIKTKNLSGAILLLETIMESGKY
In the case of B1, the binding is reported as “binds”.
